{
  "sequences": {"note": "By UniProt entry, the sequences of proteins in these tests, tags left out. Where a name states a change or a piece, a line headed by the entry shows the natural chain unless it says otherwise.", "UniProt Q6Z6W2": "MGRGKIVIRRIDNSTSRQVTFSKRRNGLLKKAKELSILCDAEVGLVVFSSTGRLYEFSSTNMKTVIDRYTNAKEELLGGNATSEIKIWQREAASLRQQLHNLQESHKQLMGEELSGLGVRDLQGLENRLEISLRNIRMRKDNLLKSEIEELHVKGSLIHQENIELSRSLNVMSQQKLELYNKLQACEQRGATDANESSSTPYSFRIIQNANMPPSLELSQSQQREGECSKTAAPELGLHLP"},
  "source": "paper PMC5873253",
  "biological_target": "OsMADS57 (Oryza sativa) (UniProt Q6Z6W2)",
  "assay": "EMSA",
  "settings": "text mentions mutant probe with labeled WRKY94S2, described as negative control without shifted band; EMSA: LightShift Chemiluminescent kit (Pierce), buffer not stated; recombinant protein; protein details: N-terminal GST",
  "note": "The exact form of at least one protein or probe is not confirmed. No signal at the amounts used counts as a negative.",
  "data": [
    {"sequence": "TTAAAGGGCCCCCTTTAGTTAAAGGGCCCCCTTTAGTTAAAGGGCCCCCTTTAG (double strand) [WRKY94S2 mutant (57mP)]", "values": [
      {"measurement": "binding result", "result": "no binding"}
    ]}
  ]
}
